Some entries share one result that the patent states for a list of compounds. At least one structure is not confirmed: it was looked up by name or label, or the drawing left a doubt.
Tested on: P. falciparum merozoite invasion of human erythrocytes
Experiment: RBC invasion by synchronized schizonts with SPP inhibitors, new rings counted
Type: cell-based
Conditions: 10 μM, 20 h incubation
Text: To investigate the role of PfSPP in parasite invasion, a chemical approach was adopted by employing three synthetic inhibitors of mammalian membrane aspartyl proteases. The inhibitor (Z-LL)2-ketone (Calbiochem/EMD Biosciences, Gibbstown, N.J.) is specific for mammalian SPP, whereas the L-685,458 and DAPT inhibitors (both were gift of Dr. S. Sisodia of the University of Chicago) are known to be specific for the γ-secretase/Presenilin-1 complex (FIG. 8A). […] Herein, human erythrocytes with highly synchronized P. falciparum schizonts were incubated in the presence of increasing concentrations of (Z-LL)2-ketone, L-685,458, and DAPT. After 20 h of incubation, the rings were counted from the inhibitor and DMSO treated samples.

For `CC(C)C[C@H](NC(=O)[C@H](Cc1ccccc1)C[C@@H](O)[C@H](Cc1ccccc1)NC(=O)OC(C)(C)C)C(=O)N[C@@H](Cc1ccccc1)C(N)=O` [L-685,458], the “inhibition of new ring formation” value was over 95%.

Source: patent US20110171225A1, “Novel Plasmodium Falciparum Gene Encoding Signal Peptide Peptidase and Method of Using Inhibitors Thereof for Inhibiting Malarial Infection” (The Board of Trustees of the University of Illinois, priority 2008, published 2011)
